Data: PubChem BioAssay AID445 (National Center for Advancing Translational Sciences (NCATS), 2006)
This is one part of the list. Further columns of the screen follow, without active or inactive calls. Most of these compounds were active or inconclusive in the main read-out, so they are no random draw. Potencies come from curve fits of mixed quality, noted in brackets.

test: IkB Signaling; details: ABC-DLBCL IkBa-CBG/CBR dual luciferase ratio (green luciferase fused to IkBa over red control in OCI-Ly3 lymphoma cells), 4 h; measured here: control luc red channel unless noted
In short: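 Luminescence ratio of IκBα-fused green versus native red beetle luciferase in OCI-Ly3 cells, 4 h post-doxycycline with compound; red signal alone, scaled from basal (0%) to zero light (-100%), flagged nonspecific or cytotoxic effects.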

| Compound | AC50 |
| --- | --- |
| Cc1oc2ccc(O)c(CN3CCN(Cc4ccccc4)CC3)c2c1C(=O)Nc1ccccc1 | 15.8 µM [falling, partial curve] |
| CCn1c2ccccc2c2nnc(SCc3ccccc3)nc21 | 12.6 µM [falling, partial curve] |
| O=C(CSc1nnc(-c2cccs2)n1Cc1ccco1)Nc1ccc2c(c1)OCO2 | 12.6 µM [falling, partial curve] |
| Cc1cc(C)c(S(=O)(=O)NCCc2cc3cc(C)c(C)cc3[nH]c2=O)c(C)c1 | 25.1 µM [falling, partial curve, poor fit] |
| O=S(=O)(NCCc1nnc2ccc(SCc3ccc(C(F)(F)F)cc3)nn12)c1ccccc1 | 12.6 µM [falling, partial curve] |
| COC(=O)c1[nH]c2ccc(C)cc2c1NC(=O)CN1CCN(c2ccccc2)CC1 | 12.6 µM [falling, partial curve] |
| CC(C)OCCCNc1sc(S(=O)(=O)c2ccccc2)nc1S(=O)(=O)c1ccc(Cl)cc1 | 15.8 µM [falling, single point] |
| Oc1cc2c(cc1O)[C@H]1c3ccc(O)c(O)c3OC[C@@]1(O)C2 | 12.6 µM [falling, partial curve] |
| CCOc1ccccc1NC(=O)CSc1nc2c(oc3ccccc32)c(=O)n1C(C)C | 39.8 µM [falling, single point] |
| Cc1ccc(Cn2c(=O)n(CC3CCC(C(=O)N4CCC(C)CC4)CC3)c(=O)c3sccc32)cc1 (stereo unspecified) | 25.1 µM [falling, partial curve] |
| Cc1cc(O)c2c(-c3ccccc3)cc(=O)oc2c1 | 20 µM [falling, partial curve] |
| CCOC(=O)C1(C)C=C(Nc2ccc(Br)cc2)C(=O)N1c1ccccc1 (stereo unspecified) | 10 µM [falling, partial curve] |
| CCn1c(=NC(=O)c2ccc3c(c2)OCCO3)sc2c(C)ccc(OC)c21 | 3.16 µM [rising, partial curve] |
| C=C(C)COc1ccc(-c2[nH]ncc2-c2ccccc2OC)c(O)c1 | 25.1 µM [falling, partial curve] |
| Cc1ccc(C)c2[nH]c(=O)c(CN(Cc3ccco3)S(=O)(=O)c3ccc4c(c3)OCCO4)cc12 | 10 µM [falling, partial curve] |
| Cc1nn(C(C)C(=O)NC2CCCCC2)c(=O)c2c1sc1ccccc12 (stereo unspecified) | 3.98 µM [falling, full curve] |
| COc1ccc(CC(=O)NC2CC(=O)N(c3cccc(F)c3)C2)cc1 (stereo unspecified) | 7.94 µM [falling, single point] |
| Cc1ccc(-c2nnc(Nc3ccc(Br)cc3)c3ccccc23)cc1S(=O)(=O)N1CCN(C)CC1 | 1.26 µM [falling, full curve] |
| Cc1ccc(OCC(=O)Nc2ccc(OCc3cc(=O)n4cccc(C)c4n3)cc2)cc1C | 39.8 µM [rising, single point] |
| CCN(C(=O)C(=O)Nc1ccc2nc3n(c(=O)c2c1)CCCCC3)c1ccc(F)cc1 | 15.8 µM [falling, partial curve] |
| Cc1c(C(=O)N(Cc2ccc(N(C)C)cc2)C2CCS(=O)(=O)C2)oc2ccccc12 (stereo unspecified) | 0.316 µM [falling, full curve, poor fit] |

| Compound | AC50 |
| --- | --- |
| COc1cc(C(=O)CC2(O)C(=O)N(Cc3ccccc3Cl)c3ccccc32)cc(OC)c1OC (stereo unspecified) | 39.8 µM [falling, single point] |
| Cc1ccc2sc(N(Cc3cccnc3)C(=O)CCOc3ccccc3)nc2c1C | 25.1 µM [falling, single point] |
| Cc1ccccc1-c1nc(CS(=O)CC(=O)N2CCN(c3cc(Cl)ccc3C)CC2)c(C)o1 (stereo unspecified) | 15.8 µM [falling, partial curve] |
| CCN(CC)CCCNC(=O)Cn1nc(C)n2c(cc3sccc32)c1=O | 3.16 µM [rising, full curve] |
| COc1ccc(Cn2nnc3c(=O)[nH]c(C4CCCN(C(=O)c5ccc(C)cc5)C4)nc32)cc1 (stereo unspecified) | 5.01 µM [rising, partial curve, poor fit] |
| CCOc1ccc(OCC)c(NC(=O)CSc2nc3cccnc3n2C)c1 | 25.1 µM [falling, partial curve] |
| COc1ccc(CCNC(=O)Cn2c(=O)n(-c3ccc(C)c(C)c3)c(=O)c3c(C)c(C)sc32)cc1OC | 15.8 µM [falling, single point] |
| O=C(Cn1c2c(c(-c3ccccc3)cc1=O)CCCC2)N1CCCCCC1 | 15.8 µM [falling, partial curve] |
| COc1cccc(-c2nn(C)c3sc(C(=O)NCc4ccccn4)cc23)c1 | 3.98 µM [falling, partial curve] |
| COc1ccc(OC)c(C(=O)c2c(N)c(-c3nc(-c4ccc(C)c(C)c4)cs3)c3ccccn23)c1 | 10 µM [falling, partial curve] |
| Cc1cc(C)c2nc(N3CCCC(C(=O)NCc4cccc(Br)c4)C3)sc2c1 (stereo unspecified) | 10 µM [falling, partial curve] |
| Fc1ccc(Nc2nc3ccccc3c3nncn23)c(Cl)c1 | 1 µM [rising, full curve] |
| CCN(C(=O)c1cc2cc3ccc(C)cc3nc2o1)c1ccc(OC)cc1 | 25.1 µM [falling, single point] |
| CCOc1ccccc1N1CCN(C(=O)c2cc3c(s2)CCC3)CC1 | 39.8 µM [falling, single point] |
| COc1ccccc1N(CC(=O)NC1CCCC1)C(=O)c1csnn1 | 20 µM [falling, partial curve] |
| Cc1ccc(NC(=O)c2oc3ccc(S(=O)(=O)N4CCCCCC4)cc3c2C)cc1Cl | 10 µM [falling, partial curve] |
| CCOC(=O)c1ccc(N2CCN(c3ccccc3F)CC2)c(NC(=O)Nc2ccc(Cl)c(Cl)c2)c1 | 10 µM [falling, partial curve] |
| CCSC1=C(C#N)C(c2cccc(Br)c2)CC(=O)N1 (stereo unspecified) | 25.1 µM [falling, partial curve] |
| CCCN1C(=O)c2[nH]nc(-c3ccccc3O)c2C1c1ccc(OCc2ccccc2)c(OCC)c1 (stereo unspecified) | 10 µM [falling, partial curve] |
| Cc1noc(C)c1COc1cccc(C(=O)N2CCN(C/C=C/c3ccccc3)CC2)c1 | 12.6 µM [falling, partial curve] |
| Fc1ccc(-c2nc3nc4ccccc4nc3n2Cc2ccco2)cc1 | 3.16 µM [falling, partial curve] |

| Compound | AC50 |
| --- | --- |
| COC(=O)C(CC(=O)c1ccc(Br)cc1)n1ccnc1 (stereo unspecified) | 3.98 µM [falling, full curve] |
| COc1ccc(-c2nc3ccccc3s2)cc1NC(=O)COc1ccccc1C | 1.26 µM [rising, full curve] |
| Cc1nnc(NC(=O)CSc2nc3c([nH]c4ccccc43)c(=O)n2-c2ccccc2)s1 | 0.316 µM [rising, full curve] |
| CC(C)Oc1ccc(C(=O)Nc2ccc3c(c2)CCCN3C(=O)c2cccs2)cc1 | 12.6 µM [falling, partial curve] |
| COc1ccc(Cn2c(CNC(=O)c3ccc(N(C)C)cc3)nc3cccnc32)cc1 | 1 µM [rising, full curve] |
| O=C(Cn1cc(SCc2ccc(C(F)(F)F)cc2)c2ccccc21)N1CCCCCC1 | 5.01 µM [falling, partial curve] |
| CC(C)(C)OC(=O)N1CCC(c2c(C(=O)NC3CCCCC3)cnn2-c2cccc(F)c2)CC1 | 15.8 µM [falling, single point] |
| O=C1C(Cl)=C(Nc2ccc(S(=O)(=O)Nc3ccccn3)cc2)C(=O)c2ccccc21 | 6.31 µM [rising, partial curve] [measured here: IkB-luc green channel] |
| Cc1cccc(C(=O)Nc2cccc(C(=O)OCc3cc(=O)n4nc(C(C)C)sc4n3)c2)c1 | 12.6 µM [falling, partial curve] |
| CC(NC(=O)c1ccc(NC(=O)c2nsc3ccccc23)cc1)c1ccccc1 (stereo unspecified) | 0.0794 µM [falling, full curve] |
| O=C(Nc1ccccc1)N(Cc1ccc2c(c1)OCO2)Cc1nc2ccccc2c(=O)[nH]1 | 12.6 µM [falling, partial curve] |
| O=C(COc1ccccc1)NCc1ccc2c(c1)CCN2C(=O)c1ccccc1 | 0.0794 µM [falling, full curve, poor fit] |
| COc1ccc(OC)c(S(=O)(=O)N2Cc3ccccc3CC2C(=O)Nc2nccs2)c1 (stereo unspecified) | 5.01 µM [falling, partial curve] |
| COc1ccc(-c2cc(NCc3ccccn3)n3ncnc3n2)cc1 | 39.8 µM [rising, single point] [measured here: IkB-luc green channel] |
| Cc1ccc(C)c(Nc2nc(-c3ccccc3)c3cc(Br)ccc3n2)c1 | 25.1 µM [falling, partial curve, poor fit] |
| COc1ccc(CCNC(=O)CCCCn2c(=O)c3ccccc3n(CC(=O)Nc3ccc(C)cc3C)c2=O)cc1OC | 39.8 µM [falling, single point] |
| CCN(CCNC(=O)CS(=O)(=O)Cc1nc(-c2cccc(OC)c2)oc1C)c1ccccc1 | 15.8 µM [falling, partial curve] |
| O=C(Nc1cccc(Cl)c1)c1cc(-c2ccc3c(c2)OCCO3)on1 | 0.0398 µM [falling, full curve] |
| Cc1nnc(N2CCCC(C(=O)Nc3cccc(C(F)(F)F)c3)C2)c2nn(-c3ccccc3)c(C)c12 (stereo unspecified) | 39.8 µM [falling, partial curve] |

18 neighbouring entries out of the list so far, for reference:

| Compound | AC50 |
| --- | --- |
| COc1ccc(Cn2nnc3c(=O)[nH]c(C4CCCN(C(=O)c5ccc(C)cc5)C4)nc32)cc1 (stereo unspecified) | 5.01 µM [rising, partial curve, poor fit] |
| CCOc1ccc(OCC)c(NC(=O)CSc2nc3cccnc3n2C)c1 | 25.1 µM [falling, partial curve] |
| COc1ccc(CCNC(=O)Cn2c(=O)n(-c3ccc(C)c(C)c3)c(=O)c3c(C)c(C)sc32)cc1OC | 15.8 µM [falling, single point] |
| O=C(Cn1c2c(c(-c3ccccc3)cc1=O)CCCC2)N1CCCCCC1 | 15.8 µM [falling, partial curve] |
| COc1cccc(-c2nn(C)c3sc(C(=O)NCc4ccccn4)cc23)c1 | 3.98 µM [falling, partial curve] |
| COc1ccc(OC)c(C(=O)c2c(N)c(-c3nc(-c4ccc(C)c(C)c4)cs3)c3ccccn23)c1 | 10 µM [falling, partial curve] |
| Cc1cc(C)c2nc(N3CCCC(C(=O)NCc4cccc(Br)c4)C3)sc2c1 (stereo unspecified) | 10 µM [falling, partial curve] |
| Fc1ccc(Nc2nc3ccccc3c3nncn23)c(Cl)c1 | 1 µM [rising, full curve] |
| CCN(C(=O)c1cc2cc3ccc(C)cc3nc2o1)c1ccc(OC)cc1 | 25.1 µM [falling, single point] |
| CCOc1ccccc1N1CCN(C(=O)c2cc3c(s2)CCC3)CC1 | 39.8 µM [falling, single point] |
| COc1ccccc1N(CC(=O)NC1CCCC1)C(=O)c1csnn1 | 20 µM [falling, partial curve] |
| Cc1ccc(NC(=O)c2oc3ccc(S(=O)(=O)N4CCCCCC4)cc3c2C)cc1Cl | 10 µM [falling, partial curve] |
| CCOC(=O)c1ccc(N2CCN(c3ccccc3F)CC2)c(NC(=O)Nc2ccc(Cl)c(Cl)c2)c1 | 10 µM [falling, partial curve] |
| CCSC1=C(C#N)C(c2cccc(Br)c2)CC(=O)N1 (stereo unspecified) | 25.1 µM [falling, partial curve] |
| CCCN1C(=O)c2[nH]nc(-c3ccccc3O)c2C1c1ccc(OCc2ccccc2)c(OCC)c1 (stereo unspecified) | 10 µM [falling, partial curve] |
| Cc1noc(C)c1COc1cccc(C(=O)N2CCN(C/C=C/c3ccccc3)CC2)c1 | 12.6 µM [falling, partial curve] |
| Fc1ccc(-c2nc3nc4ccccc4nc3n2Cc2ccco2)cc1 | 3.16 µM [falling, partial curve] |
| COC(=O)C(CC(=O)c1ccc(Br)cc1)n1ccnc1 (stereo unspecified) | 3.98 µM [falling, full curve] |
